Some of these results come from one statement about several compounds together.
System: Anopheles stephensi (Indian Malaria Mosquito)
Test: Example B24: Anopheles stephensi, dry deposits in 12 well tissue culture plates, control
Type: in vivo
Conditions: application rate of 200 ppm in ethanol; adult females; after 48 h and/or 24 h

CCS(=O)(=O)c1cc(C(C#N)CCBr)cnc1-c1cn2cnc(C(F)(F)F)cc2n1 (stereo not drawn) [Compound P13, 4-bromo-2-[5-ethylsulfonyl-6-[7-(trifluoromethyl)imidazo[1,2-c]pyrimidin-2-yl]-3-pyridyl]butanenitrile]
control of Anopheles stephensi: at least 80%

CCS(=O)(=O)c1cc(-c2cc(F)cc(F)c2)cnc1-c1cn2cnc(C(F)(F)F)cc2n1 [Compound P14]
control of Anopheles stephensi: at least 80%

CCS(=O)(=O)c1cc(C2CC2)cnc1-c1cn2cnc(C(F)(F)F)cc2n1 [Compound P16, 2-(5-cyclopropyl-3-ethylsulfonyl-2-pyridyl)-7-(trifluoromethyl)imidazo [1,2-c]pyrimidine]
control of Anopheles stephensi: at least 80%

CCS(=O)(=O)c1cc(-n2ccc(C(F)(F)F)n2)cnc1-c1cn2cnc(C(F)(F)F)cc2n1 [Compound P4, 2-[3-ethylsulfonyl-5-[3-(trifluoromethyl)pyrazol-1-yl]-2-pyridyl]-7-(trifluoromethyl)imidazo[1,2-c]pyrimidine]
control of Anopheles stephensi: at least 80%

CCS(=O)(=O)c1cc(-n2ccc(C(F)(F)F)n2)ccc1-c1cn2cnc(C(F)(F)F)cc2n1 [Compound P1, 2-[2-ethylsulfonyl-4-[3-(trifluoromethyl)pyrazol-1-yl]phenyl]-7-(trifluoromethyl)imidazo[1,2-c]pyrimidine]
control of Anopheles stephensi: at least 80%

CCS(=O)(=O)c1cc(-c2ccc(C(F)(F)F)cc2)cnc1-c1cn2cnc(C(F)(F)F)cc2n1 [Compound P6, 2-[3-ethylsulfonyl-5-[4-(trifluoromethyl)phenyl]-2-pyridyl]-7-(trifluoromethyl)imidazo[1,2-c]pyrimidine]
control of Anopheles stephensi: at least 80%

Source: patent US10645928B2, “Pesticidally active polycyclic derivatives with sulfur containing substituents” (Syngenta Participations AG, priority 2014, dated 2020)
